The results in this text go back to PMC8241718.

The target in this experiment is T1, Flag-DUSP9 (adenoviral, in NRVM) (UniProt Q99956).
T1 sequence: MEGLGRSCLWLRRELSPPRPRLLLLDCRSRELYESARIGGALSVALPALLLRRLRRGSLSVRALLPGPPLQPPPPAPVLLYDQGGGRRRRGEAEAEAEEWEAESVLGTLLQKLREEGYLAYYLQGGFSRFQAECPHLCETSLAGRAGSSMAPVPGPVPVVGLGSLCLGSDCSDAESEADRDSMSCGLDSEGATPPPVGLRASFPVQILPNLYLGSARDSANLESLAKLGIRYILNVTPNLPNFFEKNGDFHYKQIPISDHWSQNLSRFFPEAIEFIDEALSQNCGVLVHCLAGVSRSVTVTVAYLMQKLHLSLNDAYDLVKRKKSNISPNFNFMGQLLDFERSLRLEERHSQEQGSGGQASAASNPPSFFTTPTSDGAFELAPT
Nature of the experiment: co-IP; NRVM infected with Flag-DUSP9 (adenoviral); endogenous ASK1; which protein was precipitated is not told.

These are yes or no findings as the source states them, for the method shown. Binding seen in cells or lysates may run through a third protein. A result given as binding can be weak or reduced; the word gives no strength. Sequences can lack the tags named with a protein.

“endogenous ASK1 (apoptosis signal-regulating kinase 1) of NRVM (rat (endogenous in NRVM)) (enzyme)”: the binding entry was “binds”.
